The values that follow come from PubChem BioAssay AID288 (DTP/NCI, 2004).

For the test, the system named is BDF1 mice, M5076 sarcoma s.c., survival/tumor T/C. Put plainly: NCI In Vivo Anticancer Drug Screen. Data for tumor model Sarcoma M5076 (subcutaneous) in B6D2F1 (BDF1) mice. Here is the method: The antitumor activity of compounds was measured in mice bearing transplantable tumors. Survival or tumor size were measured and the results are expressed as the measurement made in the treated group (T) divided by the measurement made in the vehicle treated control group (C). The tumor model used in this assay is Sarcoma M5076 (subcutaneous) in B6D2F1 (BDF1) mice

[1] abbreviates: T/C endpoint: median survival time, dose: 430.0 mg/kg/injection, schedule: Q01DX001 (ip), vehicle: saline, higher T/C = longer survival.

Structures are written as SMILES. The list does not hold the whole screen: it is rich in T/C values a quarter to a half above the control, in often repeated tests (any T/C) and in doses without a T/C. Other doses and runs of a compound stand elsewhere. T/C is the treated group as % of the vehicle group. Schedules are NCI's codes, read here as Q, the interval in days (D) or hours (H), X, the number of doses. Some entries give survivors of the animals treated and no T/C: the source files T/C as zero there, which appears to mark a toxic dose or a test without result, not a measured value. Some doses without a T/C left all or most animals alive at the check, yet need not have been tolerated: survival well below the control is almost never listed, so the zero probably covers shortened survival too. Survivors were counted at the toxicity check, usually on the fifth day, unless a day is given; later deaths do not show. Some entries were tested several times; the results are listed from low to high. For survival time, this PubChem deposit counts one and a half times the control or more as active, and values a quarter to a half above the control carry no call in these data; other NCI protocols may use other cut-offs. Some T/C values carry the count of animals alive at the toxicity check (mostly the fifth day); where none is given, no animal had died by that day.

For `O=P1(N(CCCl)CCCl)NCCCO1` (configuration not stated), the T/C (T/C endpoint: median survival time, dose: 108.0 mg/kg/injection, schedule: Q01DX001 (ip), vehicle: saline, evaluated on day 16, higher T/C = longer survival) is 133 and 152 % of control; the T/C (T/C endpoint: median survival time, dose: 108.0 mg/kg/injection, schedule: Q01DX001 (ip), vehicle: saline, evaluated on day 17, higher T/C = longer survival) was 126 % of control; the T/C (T/C endpoint: median survival time, dose: 108.0 mg/kg/injection, schedule: Q01DX001 (ip), vehicle: saline, evaluated on day 38, higher T/C = longer survival) was 118 % of control; the T/C (T/C endpoint: median survival time, dose: 108.0 mg/kg/injection, schedule: Q01DX001 (ip), vehicle: saline, evaluated on day 43, higher T/C = longer survival) was 132 % of control; the T/C (T/C endpoint: median survival time, dose: 108.0 mg/kg/injection, schedule: Q01DX001 (ip), vehicle: saline, evaluated on day 50, higher T/C = longer survival) is 141 % of control; the T/C (T/C endpoint: median survival time, dose: 108.0 mg/kg/injection, schedule: Q01DX001 (ip), vehicle: saline, evaluated on day 54, higher T/C = longer survival) was 127 % of control. Also, the T/C (T/C endpoint: median survival time, dose: 108.0 mg/kg/injection, schedule: Q01DX001 (ip), vehicle: saline, evaluated on day 69, higher T/C = longer survival) is 149 % of control; the T/C (T/C endpoint: median survival time, dose: 180.0 mg/kg/injection, schedule: Q01DX001 (ip), vehicle: saline, evaluated on day 16, higher T/C = longer survival) is 133 and 149 % of control; the T/C (T/C endpoint: median survival time, dose: 180.0 mg/kg/injection, schedule: Q01DX001 (ip), vehicle: saline, evaluated on day 17, higher T/C = longer survival) was 145 % of control; the T/C (T/C endpoint: median survival time, dose: 180.0 mg/kg/injection, schedule: Q01DX001 (ip), vehicle: saline, evaluated on day 38, higher T/C = longer survival) was 118 % of control; the T/C (T/C endpoint: median survival time, dose: 180.0 mg/kg/injection, schedule: Q01DX001 (ip), vehicle: saline, evaluated on day 43, higher T/C = longer survival) was 151 % of control; the T/C (T/C endpoint: median survival time, dose: 180.0 mg/kg/injection, schedule: Q01DX001 (ip), vehicle: saline, evaluated on day 50, higher T/C = longer survival) was 148 % of control. The T/C reads like this: (T/C endpoint: median survival time, dose: 180.0 mg/kg/injection, schedule: Q01DX001 (ip), vehicle: saline, evaluated on day 54, higher T/C = longer survival) 147 % of control; (T/C endpoint: median survival time, dose: 180.0 mg/kg/injection, schedule: Q01DX001 (ip), vehicle: saline, evaluated on day 69, higher T/C = longer survival) 170 % of control; (T/C endpoint: median survival time, dose: 300.0 mg/kg/injection, schedule: Q01DX001 (ip), vehicle: saline, evaluated on day 16, higher T/C = longer survival) 156 and 167 % of control; (T/C endpoint: median survival time, dose: 300.0 mg/kg/injection, schedule: Q01DX001 (ip), vehicle: saline, evaluated on day 17, higher T/C = longer survival) 156 and 161 % of control; (T/C endpoint: median survival time, dose: 300.0 mg/kg/injection, schedule: Q01DX001 (ip), vehicle: saline, evaluated on day 38, higher T/C = longer survival) 133 % of control; (T/C endpoint: median survival time, dose: 300.0 mg/kg/injection, schedule: Q01DX001 (ip), vehicle: saline, evaluated on day 43, higher T/C = longer survival) 168 % of control. The T/C (T/C endpoint: median survival time, dose: 300.0 mg/kg/injection, schedule: Q01DX001 (ip), vehicle: saline, evaluated on day 50, higher T/C = longer survival) was 154 % of control [9 of 10 alive on day 50]; the T/C (T/C endpoint: median survival time, dose: 300.0 mg/kg/injection, schedule: Q01DX001 (ip), vehicle: saline, evaluated on day 54, higher T/C = longer survival) is 153 and 164 % of control; the T/C (T/C endpoint: median survival time, dose: 300.0 mg/kg/injection, schedule: Q01DX001 (ip), vehicle: saline, evaluated on day 69, higher T/C = longer survival) is 183 % of control [7 of 10 alive on day 69]; the T/C under setting [1] was 129 % of control; the T/C (T/C endpoint: median survival time, dose: 500.0 mg/kg/injection, schedule: Q01DX001 (ip), vehicle: saline, evaluated on day 16, higher T/C = longer survival) is 156 [7 of 8 alive] and 163 % of control; the T/C (T/C endpoint: median survival time, dose: 500.0 mg/kg/injection, schedule: Q01DX001 (ip), vehicle: saline, evaluated on day 17, higher T/C = longer survival) was 77 % of control [6 of 7 alive]. Also, the T/C is 159 % of control (T/C endpoint: median survival time, dose: 500.0 mg/kg/injection, schedule: Q01DX001 (ip), vehicle: saline, evaluated on day 38, higher T/C = longer survival) and 194 % of control [7 of 10 alive on day 69] (T/C endpoint: median survival time, dose: 500.0 mg/kg/injection, schedule: Q01DX001 (ip), vehicle: saline, evaluated on day 69, higher T/C = longer survival). The survivor count is, setting by setting: under setting [1], 3 of 9 on day 54; (T/C endpoint: median survival time, dose: 500.0 mg/kg/injection, schedule: Q01DX001 (ip), vehicle: saline, higher T/C = longer survival) 1 of 8 on day 54, 5 of 9 on day 43, 6 of 10 on day 50; (T/C endpoint: median survival time, dose: 614.0 mg/kg/injection, schedule: Q01DX001 (ip), vehicle: saline, higher T/C = longer survival) 0 of 9 on day 54 and 1 of 5.
Turning to `CC1(C)OC(C)(C)c2c1nnc(-c1ccccc1)[n+]2[O-]`, the T/C (T/C endpoint: median tumor weight (est.), dose: 50.0 mg/kg/injection, schedule: Q01DX009 (ip), vehicle: saline with Tween-80, evaluated on day 20, higher T/C = larger tumour) was 125 % of control.
Regarding `COc1ccc(Cl)cc1NC(=O)NNC(=O)C(=O)Nc1ccc(F)cc1`, the T/C (T/C endpoint: median tumor weight (est.), dose: 100.0 mg/kg/injection, schedule: Q01DX009 (ip), vehicle: saline with Tween-80, evaluated on day 20, higher T/C = larger tumour) was 147 % of control.
For the compound `NC(C/[N+]([O-])=N/O)C(=O)O` (configuration not stated), the T/C was 129 % of control (T/C endpoint: median survival time, dose: 19.8 mg/kg/injection, schedule: Q01DX010 (ip), vehicle: alkali diluted with saline, higher T/C = longer survival); 133 % of control (T/C endpoint: median survival time, dose: 119.0 mg/kg/injection, schedule: Q04DX005 (ip), vehicle: alkali diluted with saline, higher T/C = longer survival); 133 % of control (T/C endpoint: median survival time, dose: 178.0 mg/kg/injection, schedule: Q04DX005 (ip), vehicle: alkali diluted with saline, evaluated on day 75, higher T/C = longer survival); 132 % of control [9 of 10 alive on day 77] (T/C endpoint: median survival time, dose: 178.0 mg/kg/injection, schedule: Q04DX005 (ip), vehicle: alkali diluted with saline, evaluated on day 77, higher T/C = longer survival). The survivor count is 6 of 10 on day 77 (T/C endpoint: median survival time, dose: 79.0 mg/kg/injection, schedule: Q04DX005 (ip), vehicle: alkali diluted with saline, higher T/C = longer survival); 3 of 10 on day 77 and 10 of 10 (T/C endpoint: median survival time, dose: 100.0 mg/kg/injection, schedule: Q01DX010 (ip), vehicle: alkali diluted with saline, higher T/C = longer survival); 5 of 10 on day 77 (T/C endpoint: median survival time, dose: 400.0 mg/kg/injection, schedule: Q04DX005 (ip), vehicle: alkali diluted with saline, higher T/C = longer survival); 0 of 10 on day 77 and 10 of 10 (T/C endpoint: median survival time, dose: 600.0 mg/kg/injection, schedule: Q04DX005 (ip), vehicle: alkali diluted with saline, higher T/C = longer survival); 1 of 10 on day 22 (T/C endpoint: median tumor weight (est.), dose: 200.0 mg/kg/injection, schedule: Q02DX011 (ip), vehicle: alkali diluted with saline, higher T/C = larger tumour); 0 of 10 on day 22 (T/C endpoint: median tumor weight (est.), dose: 400.0 mg/kg/injection, schedule: Q02DX011 (ip), vehicle: alkali diluted with saline, higher T/C = larger tumour).
Consider `COC1C(O)C(C)OC(OC2C(Oc3cccc4c(O)c5c(=O)oc6ccc(C)c7c(=O)oc(c34)c5c67)OC(C)C(O)C2O)C1O` (configuration not stated), for which the T/C (T/C endpoint: median tumor weight (est.), dose: 25.0 mg/kg/injection, schedule: Q02DX011 (ip), vehicle: Klucel (hydroxypropylcellulose) (HPC), evaluated on day 22, higher T/C = larger tumour) was 130 % of control.
On to `CCCNC(=O)ON1C(=O)C2C3C=CC(C3)C2C1=O` (configuration not stated), for which the survivor count is 0 of 10 on day 9 (T/C endpoint: median survival time, dose: 50.0 mg/kg/injection, schedule: Q01DX009 (ip), vehicle: saline with Tween-80, higher T/C = longer survival); 0 of 10 on day 9 (T/C endpoint: median survival time, dose: 100.0 mg/kg/injection, schedule: Q01DX009 (ip), vehicle: saline with Tween-80, higher T/C = longer survival); 0 of 10 on day 9 (T/C endpoint: median survival time, dose: 200.0 mg/kg/injection, schedule: Q01DX009 (ip), vehicle: saline with Tween-80, higher T/C = longer survival); 0 of 10 on day 20 (T/C endpoint: median tumor weight (est.), dose: 50.0 mg/kg/injection, schedule: Q01DX009 (ip), vehicle: saline with Tween-80, higher T/C = larger tumour); 0 of 10 on day 20 (T/C endpoint: median tumor weight (est.), dose: 100.0 mg/kg/injection, schedule: Q01DX009 (ip), vehicle: saline with Tween-80, higher T/C = larger tumour); 0 of 10 on day 20 (T/C endpoint: median tumor weight (est.), dose: 200.0 mg/kg/injection, schedule: Q01DX009 (ip), vehicle: saline with Tween-80, higher T/C = larger tumour). The T/C (T/C endpoint: median tumor weight (est.), dose: 12.5 mg/kg/injection, schedule: Q01DX009 (ip), vehicle: saline with Tween-80, evaluated on day 20, higher T/C = larger tumour) was 129 % of control.
Consider `COc1cc2c[n+](C)c3c4cc5c(cc4ccc3c2cc1OC)OCO5`, for which the survivor count (T/C endpoint: mean tumor weight, dose: 40.0 mg/kg/injection, schedule: Q02DX011 (ip), vehicle: Klucel (hydroxypropylcellulose) (HPC), higher T/C = larger tumour) was 0 of 10 on day 22 and 5 of 10 on day 22; the survivor count (T/C endpoint: mean tumor weight, dose: 80.0 mg/kg/injection, schedule: Q02DX011 (ip), vehicle: Klucel (hydroxypropylcellulose) (HPC), higher T/C = larger tumour) is recorded as 0 of 10 on day 22; the survivor count (T/C endpoint: median tumor weight (est.), dose: 40.0 mg/kg/injection, schedule: Q02DX011 (ip), vehicle: Klucel (hydroxypropylcellulose) (HPC), higher T/C = larger tumour) is reported as 0 of 10 on day 22.
